Experimental data as given in PubChem BioAssay AID2685 (National Center for Advancing Translational Sciences (NCATS), 2010).
This is one part of the list. The main result of the screen is listed elsewhere. These columns were measured beside it and carry no call. Most of these compounds were active or inconclusive in the main read-out, so they are no random draw. The note in brackets gives the kind of curve behind each potency; many fits are weak.

Test: qHTS Assay for Lipid Storage Modulators in Drosophila S3 Cells;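 on cell number change: cells counted by Cell Tracker Red CMTPX staining in the red channel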
Settings: BODIPY lipid droplet fluorescence, 18-24 h; for cell number change: measured here: cell count max response, cells fed with added oleic acid
How it was run: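 Drosophila S3 cells got compounds at several concentrations plus oleic acid (400 uM solution). Laser-scanning cytometry with 488 nm excitation read lipid droplets at 500-530 nm and cells at 575-640 nm. Percent activity was relative to 20 uM Triacsin C.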

[1] = measured here: cell number channel AC50, cells fed with added oleic acid
[2] = measured here: lipid fluorescence (Fed channel) AC50, cells fed with added oleic acid

Row | Structure (SMILES) | cell number change | AC50 [1] | AC50 [2]
1 | O=S(=O)(Nc1ccc(-n2cnnn2)cc1)c1cccs1 | -3.68% | 6.51 µM [rising, single point] | 6.51 µM [rising, single point]
2 | NC(=O)CN1CCN(c2ccccc2F)CC1 | -15.8% | – | 20.6 µM [falling, single point]
3 | COc1cccc(-c2csc(NC(=O)Nc3ccccc3)n2)c1 | -27.7% | – | –
4 | N#Cc1ccc(CSc2ccc(S(=O)(=O)N3CCCCCC3)cn2)cc1 | – | 0.00517 µM [falling, full curve, poor fit] | –
5 | O=C(NCCCl)NNC(=O)c1cc2ccccc2cc1O | -41.5% | 14.6 µM [falling, single point] | –
6 | COc1ccc2[nH]c(=O)c(CN(CC3CCCO3)C(=O)Nc3ccc(F)cc3)cc2c1 (stereo not given) | – | 2.59 µM [rising, partial curve] | 18.4 µM [rising, single point]
7 | CCN1CCc2c(OCC(=O)Nc3ccc(C)cc3)cccc2C1=O | 7.33% | – | –
8 | CCC(Cc1ccccc1)NC(=O)CN(C)S(=O)(=O)c1ccc2c(c1)c(=O)n(C)c(=O)n2C (stereo not given) | -16.6% | – | 0.116 µM [falling, full curve, poor fit]
9 | CCN(C1=NS(=O)(=O)c2ccccc21)N(CC)S(=O)(=O)c1ccc(C)cc1 | -0.851% | 6.51 µM [falling, single point] | 6.51 µM [falling, single point]
10 | CCOC(=O)[C@H]1[C@H]2COc3cc(OC)ccc3[C@@H]2N2C(=O)N(c3cccc(Cl)c3)C(=O)[C@@]12C | 22.8% | – | –
11 | CNC(=O)COC(=O)[C@@H](Nc1ccc(S(=O)(=O)N2CCOCC2)cc1[N+](=O)[O-])C(C)C | 8.49% | – | 9.2 µM [rising, partial curve]
12 | Cc1occc1-c1nnc(SCC(=O)NCc2ccc3c(c2)OCO3)n1CC(C)C | 5.38% | – | –
13 | CC1CCCCN1S(=O)(=O)c1ccc(C(=O)N(CCCN(C)C)c2nc3cc4c(cc3s2)OCO4)cc1 (stereo not given) | 21.1% | – | 3.66 µM [rising, full curve, poor fit]
14 | O=C(Nc1cccc(NC(=O)c2cncc(Br)c2)c1)c1cncc(Br)c1 | 26.1% | – | 14.6 µM [falling, partial curve]
15 | Cc1ccc(C(=O)NC2CCN(CC(=O)NCc3cccs3)CC2)cc1 | -93.3% | 29.1 µM [falling, single point] | 0.13 µM [falling, full curve, poor fit]
16 | CC(NC(=S)NCCCN1CCOCC1)C1CC2CCC1C2 (stereo not given) | -16.8% | – | 32.6 µM [falling, single point]
17 | c1ccc(CSc2n[nH]c(-c3ccco3)n2)cc1 | 6.48% | – | 0.0058 µM [falling, full curve, poor fit]
18 | O=C(Nc1cc(S(=O)(=O)N2CCOCC2)ccc1O)c1ccc2c(c1)S(=O)(=O)c1ccccc1C2=O | -12.5% | – | –
19 | COc1ccc(/C(N)=N/OC(=O)CCC2CCCC2)cc1 | -16.6% | – | 29.1 µM [falling, single point]
20 | COc1cc(SC)ccc1C(=O)N1CCN(c2ccccc2OC)CC1 | 7.94% | – | 0.291 µM [falling, partial curve, poor fit]
21 | CCOC(=O)c1ccc(S(=O)(=O)Nc2ccccc2-c2nnn(CC)n2)cc1 | -42.4% | 32.6 µM [falling, single point] | 0.164 µM [rising, full curve, poor fit]
22 | Cc1ccc2c(c1)nnn2C1CCN(CC(=O)N(c2ccccc2)c2ccccc2)CC1 | -10.5% | – | –
23 | Cn1ccsc1=NC(=O)c1cc(S(=O)(=O)N2CCOCC2)ccc1F | – | 0.116 µM [rising, partial curve, poor fit] | 1.84 µM [rising, partial curve]
24 | CC(=O)OC(C(=O)n1nc(C)cc1C)c1ccccc1 (stereo not given) | -4.32% | 0.116 µM [falling, full curve, poor fit] | 0.13 µM [falling, full curve, poor fit]
25 | CCn1nnc(-c2ccccc2NS(=O)(=O)c2ccc(S(=O)(=O)N(C)C3CCCCC3)cc2)n1 | -6.25% | – | –
26 | CN(CC(=O)Nc1cccc(F)c1)C(=O)C1CCN(S(=O)(=O)c2ccc3c(c2)OCCO3)CC1 | -14.7% | – | –
27 | CCOC(=O)C1=C(COC(=O)CCc2ccccc2)NC(=O)NC1C (stereo not given) | 0.903% | – | 4.11 µM [rising, single point]
28 | CCOC(=O)c1c(-c2cccc([N+](=O)[O-])c2)csc1NC(=O)CCCOc1ccccc1OC | -18.7% | – | 0.0231 µM [falling, full curve, poor fit]
29 | COC(=O)CCC/C=C1\SC[C@@H](NC(=O)c2ccccc2)C1NC(C)=O (stereo not given in full) | 14.6% | – | 14.6 µM [rising, single point]
30 | Oc1c(Cl)cc(Cl)cc1C=Nc1ccc(N2CCOCC2)cc1 | -30.7% | – | –

Another view of 2 compounds above:
Row,Structure (SMILES),cell number change,AC50 [1],AC50 [2]
23,Cn1ccsc1=NC(=O)c1cc(S(=O)(=O)N2CCOCC2)ccc1F,–,"0.116 µM [rising, partial curve, poor fit]","1.84 µM [rising, partial curve]"
28,CCOC(=O)c1c(-c2cccc([N+](=O)[O-])c2)csc1NC(=O)CCCOc1ccccc1OC,-18.7%,–,"0.0231 µM [falling, full curve, poor fit]"
